Drawing on the supplement of paper PMC8047044, this text covers neurite formation score for 39 molecules.

Structures can show the parent of a compound that is named as a salt. Some of the results follow. Repeats are few or missing, and single values can be far off.

This experiment deals with Neuro-2a. The experiment is described as follows: neurite formation score, plate-normalized to DMSO control mean 5.04 (score (0-8 scale)); higher = more or longer neurites. The conditions noted are these: 10 µM.
As to `C[C@H]1Oc2cc(cnc2N)-c2c(nn(C)c2C#N)CN(C)C(=O)c2ccc(F)cc21`, the neurite formation score came to 5.19.
To `CC(C)c1cnn2c(NCc3ccccc3)cc(NCCCCCCN)nc12` belongs 0.186; to `Cc1cc(Nc2cc(N3CCN(C)CC3)nc(/C=C/c3ccccc3)n2)n[nH]1`, -0.256; to `CN(C)C(=O)c1cc2cnc(Nc3ccc(N4CCNCC4)cn3)nc2n1C1CCCC1`, 6.09.
To `Nc1nccc(Oc2ccc(NC(=O)c3c[nH]cc(-c4ccc(F)cc4)c3=O)cc2F)c1Cl` belongs 1.09; to `O=S(=O)(NCCNC/C=C/c1ccc(Br)cc1)c1cccc2cnccc12`, 5.52; to `CS(=O)(=O)N1CCN(Cc2cc3nc(-c4cccc5[nH]ncc45)nc(N4CCOCC4)c3s2)CC1`, 4.19.
Then `CCc1ccc(/C=C2/SC(=S)NC2=O)cc1`, with 4.88.
Consider `O=C(Nc1cccc(Cl)c1)Nc1ncc(CCNc2ncnc3ccsc23)s1` [SNS-314 Mesylate], for which the neurite formation score is 0.077.
Then `O=c1cc(N2CCOCC2)oc2c(-c3ccccc3)cccc12`, with 4.52; and `COc1ccc(-c2ccc3ncc4c(c3c2)n(-c2ccc(N3CCNCC3)c(C(F)(F)F)c2)c(=O)n4C)cn1`, with 1.43; and `CS(=O)(=O)N1CCN(Cc2cc3nc(-c4cccc5[nH]ncc45)nc(N4CCOCC4)c3s2)CC1` [GDC-0941 dimethanesulfonate], with 0.424.
Then `COc1cc2nccc(Oc3ccc(NC(=O)Nc4cc(C)on4)c(Cl)c3)c2cc1OC` [Tivozanib (AV-951)], with 0.876; and `COc1cc2ncnc(Nc3ccc(F)c(Cl)c3)c2cc1NC(=O)/C=C/CN1CCCCC1`, with 2.52; and `C[C@@H](Oc1cc(-n2cnc3ccc(CN4CCN(C)CC4)cc32)sc1C(N)=O)c1ccccc1C(F)(F)F`, with 1.09.
To `Cn1cc(C2=C(c3ccc(Cl)cc3Cl)C(=O)NC2=O)c2ccccc21` belongs 4.76; to `Cc1ccc(S(=O)(=O)/C=C/C#N)cc1`, -0.576.
`CN1C/C=C/CCOc2cccc(c2)-c2ccnc(n2)Nc2cccc(c2)C1`: the neurite formation score came to 2.76.
Then `CCS(=O)(=O)N1CC(CC#N)(n2cc(-c3ncnc4[nH]ccc34)cn2)C1`, with 5.08.
To `CCCCOc1c(C(=O)c2c(F)cc(C)cc2F)c[nH]c2nncc1-2` belongs 5.43.
`N#Cc1cccc(-c2c[nH]c3ncnc(N4CCOCC4)c23)c1` displayed a neurite formation score of 5.86.
Then `N#CC(=C(/N)Sc1ccccc1N)/C(C#N)=C(\N)Sc1ccccc1N`, with 4.21; and `c1nc2c(NC3CCCCC3)nc(Nc3ccc(N4CCOCC4)cc3)nc2[nH]1` [Reversine], with 0.41.
Then `Cc1c(NC(=O)c2ccc(C(C)(C)C)cc2)cccc1-c1cn(C)c(=O)c(Nc2ccc(C(=O)N3CCOCC3)cc2)n1`, with 5.88; and `CN(C)c1ccc(-c2nc3ncc(Cl)c(N4CCN(CC(=O)Nc5nccs5)CC4)c3[nH]2)cc1`, with 4.09; and `Cc1cnc(NC(=O)Nc2cc(Br)c(C)cc2OC[C@@H]2CNCCO2)cn1`, with 1.76.
Then `CNC(=O)c1cc(Oc2ccc(NC(=O)Nc3ccc(Cl)c(C(F)(F)F)c3)cc2)ccn1` [Sorafenib], with 2.54; and `Cc1ccc(C(=O)Nc2ccc(CN3CCN(C)CC3)c(C(F)(F)F)c2)cc1C#Cc1cnc2[nH]ncc2c1`, with 1.76.
As to `NC1(c2ccc(-c3nc4ccn5c(=O)[nH]nc5c4cc3-c3ccccc3)cc2)CCC1` [MK-2206 dihydrochloride], the neurite formation score is 3.21.
On to `CS(=O)(=O)c1ccc(-c2cnc(N)c(C(=O)Nc3ccccc3)n2)cc1`, for which the neurite formation score amounted to 3.21.
`O=c1sn(-c2cccc3ccccc23)c(=O)n1Cc1ccccc1` [Tideglusib]: the neurite formation score is 4.86.
As to `O=C(NC1CCNCC1)c1n[nH]cc1NC(=O)c1c(Cl)cccc1Cl`, the neurite formation score came to 4.85.
Then `Cc1ccccc1-n1c(Cn2nc(-c3cccc(O)c3)c3c(N)ncnc32)nc2cccc(C)c2c1=O`, with 3.86; and `C=CCc1ccc(O)c(-c2ccc(O)c(CC=C)c2)c1` [Honokiol], with 2.42.
Then `COc1ccc(-c2nc(N3CCOCC3)c3sc(CN(C)c4ncc(C(=O)NO)cn4)cc3n2)cn1`, with 1.74; and `CCCS(=O)(=O)Nc1ccc(F)c(C(=O)c2c[nH]c3ncc(-c4ccc(Cl)cc4)cc23)c1F` [Vemurafenib (PLX4032, RG7204)], with 4.21.
To `CCC[C@H](NC(=O)/C(C#N)=C/c1cccc(Br)n1)c1ccccc1` belongs -0.147; to `C[C@@H](Oc1ccc2[nH]nc(/C=C/c3cnn(CCO)c3)c2c1)c1c(Cl)cncc1Cl`, 1.41; to `c1cn2cc(-c3ccc4cn[nH]c4c3)nc(Nc3ccc(N4CCOCC4)cc3)c2n1`, 4.86.
